From paper PMC7819943, “Rice protein-binding microarrays: a tool to detect cis-acting elements near promoter regions in rice”
Some of the results follow.

The chains behind the UniProt entries cited, without tags or fusion partners.
UniProt Q0JBA9, entry or part of it: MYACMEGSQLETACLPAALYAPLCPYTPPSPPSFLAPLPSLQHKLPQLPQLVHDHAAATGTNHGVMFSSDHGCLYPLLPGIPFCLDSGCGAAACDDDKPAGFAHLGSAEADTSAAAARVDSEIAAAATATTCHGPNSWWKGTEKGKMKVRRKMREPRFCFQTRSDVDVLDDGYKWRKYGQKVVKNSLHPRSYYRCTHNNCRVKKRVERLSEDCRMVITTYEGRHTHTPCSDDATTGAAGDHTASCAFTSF

What follows are sequences tested against OsWRKY34 (Oryza sativa, UniProt Q0JBA9 1-250) (assay: protein-binding microarray (RPBM); PBS, 2% BSA, 51.3 ng/ul salmon testes DNA, 50 uM zinc acetate, 200 nM TF, 25 C, 1 h; high values mean tight binding). Conditions: protein: recombinant; tags: N-terminal polyhistidine and DsRed monomer fusion (pET32a); label: CyDye5-dUTP incorporated in the synthesized complementary strand; 3' TTTTT single-stranded linker to array surface; dsDNA, one strand shown.
Outline: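 Binding signal is reported as fluorescence intensity per feature (arbitrary units) from an Axon 4000B scanner. Incubation used 200 nM of each Ni–NTA-purified, N-terminally polyhistidine- and DsRed-fused transcription factor from E. coli BL21-CodonPlus on a double-stranded custom Agilent array for 1 h at 25 °C, with 50 µM zinc acetate in the buffer, followed by washing.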

Point of comparison: “ACATATTCCATGAATGATTGATCTCTTTTGCATTTGTTCGCGGAGTCACCTAGTGCAG”, binding signal 8330 fluorescence intensity (a.u.). Against it:
- GTGGTGGTGGTGTGTGAGCTCGGGGCTTGGGGTTTTGCGGCGGAGTCACCTAGTGCAG — higher, 13300 fluorescence intensity (a.u.)
- AGGGTGGGTTATATTTGAGCTGGTTAGCAAAAACTATAATCGGAGTCACCTAGTGCAG — higher, 17900 fluorescence intensity (a.u.)
- CACACTGCTCCTAGTACTACAATTACACTGGTCCTGCCCGCGGAGTCACCTAGTGCAG — higher, 8680 fluorescence intensity (a.u.)
- ATATATATATATATATCTGTGTGTGTGTGTGTGTGTGTGTCGGAGTCACCTAGTGCAG — higher, 8960 fluorescence intensity (a.u.)
- CCATTTCTTCTACCCCTATATATTCACCTCCATGCACAATCGGAGTCACCTAGTGCAG — higher, 8830 fluorescence intensity (a.u.)
- ATCACATTTTCCTACACATTCAAACTAGACAACGTTCATTCGGAGTCACCTAGTGCAG — higher, 8790 fluorescence intensity (a.u.)
- GGAGTCCGTTTCGTCTTCGTCTTCGTCGTCGTCGTCTTCTCGGAGTCACCTAGTGCAG — higher, 9060 fluorescence intensity (a.u.)
- ATTAATCCAGTTTTATGCGTTTTGTGAAAAGTTTATATATCGGAGTCACCTAGTGCAG — higher, 9150 fluorescence intensity (a.u.)
- GTAGTAACATGACCAAGTTCGGATCGGTCATCAACTTCAGCGGAGTCACCTAGTGCAG — higher, 8420 fluorescence intensity (a.u.)
- ACATGTAGGCATGAACATGGCTCTCTGTCTCTGCATTAACCGGAGTCACCTAGTGCAG — lower, 8050 fluorescence intensity (a.u.)
- ATGCTATGTTCCGATGCTCACTATGGTTTCATGTTCATGGCGGAGTCACCTAGTGCAG — lower, 8040 fluorescence intensity (a.u.)
- CTGCGCGATTCCGGCGAGCCCACCGCCGCCGGCTCGCCGGCGGAGTCACCTAGTGCAG — lower, 8260 fluorescence intensity (a.u.)
- TACCATTTCTTTCTTGCTTTTTTAATGCCTAAATCATCTTCGGAGTCACCTAGTGCAG — lower, 8050 fluorescence intensity (a.u.)
- CGTTTTCTTTTTTCTTCCTCGCTTTCTCTCTCTCTCTCTCCGGAGTCACCTAGTGCAG — higher, 11600 fluorescence intensity (a.u.)
- CAAGTTGCATGCGTGTCTTCTTCCTACCATCACTTCTCTCCGGAGTCACCTAGTGCAG — higher, 10400 fluorescence intensity (a.u.)
- TTATTGACCATCGACGCCATTCTCACCATCCAGTGGTCACCGGAGTCACCTAGTGCAG — higher, 8500 fluorescence intensity (a.u.)
- AGTCTTTGGTCGTCTCAGTGTCCGTCTCCTTCCTCATCTCCGGAGTCACCTAGTGCAG — higher, 10700 fluorescence intensity (a.u.)
- AGCGTGGATATGTCTCACTATGATTATTTAGTACTACACACGGAGTCACCTAGTGCAG — higher, 8480 fluorescence intensity (a.u.)
- AGCCGTCACCTACCTTCCCAAGCCGAGCCGGAGGAGATATCGGAGTCACCTAGTGCAG — lower, 8040 fluorescence intensity (a.u.)
- ATCTCAACTTGTGCATTCAGATTTCACTTGTGCATCTCATCGGAGTCACCTAGTGCAG — higher, 8370 fluorescence intensity (a.u.)
- GCACCGCCATTTGTTTATTGCCATCATTTATGATTTCGTACGGAGTCACCTAGTGCAG — higher, 10800 fluorescence intensity (a.u.)
- AGGTAGTTTAACACACATCATGCTCGCTTAACTGCAGCAACGGAGTCACCTAGTGCAG — higher, 9280 fluorescence intensity (a.u.)
- GATATGATTACGTGTGTTATTCATTTTGTGTATTTTTTTACGGAGTCACCTAGTGCAG — higher, 11000 fluorescence intensity (a.u.)
- AACCTAGCTTTCTGCTTTTCCGTCGTGCACGCTGCGGCCGCGGAGTCACCTAGTGCAG — higher, 9020 fluorescence intensity (a.u.)
- ATATCCCGTGTACGCTTTCCACTGTGCAATTAGCAAATCTCGGAGTCACCTAGTGCAG — higher, 9160 fluorescence intensity (a.u.)
- TTCTTCCGTCCTTGTATTCCAACTTCCTCCTACTAACTACCGGAGTCACCTAGTGCAG — higher, 9640 fluorescence intensity (a.u.)
- TACTTCATATGGCCTGTTTAGTTCCAAAGTTTTTTTTTTTCGGAGTCACCTAGTGCAG — lower, 8050 fluorescence intensity (a.u.)
- GCTTTGGTTAGTTTGATTCGATTGCAATATCTGCAATCCCCGGAGTCACCTAGTGCAG — higher, 9360 fluorescence intensity (a.u.)
- CGTCTCTGACCAATCCAGACCTGCGTTTCTTTCTCTTTTCCGGAGTCACCTAGTGCAG — higher, 8480 fluorescence intensity (a.u.)
- CTAGTATTTTTTTTTCTTTTCGGTACTCCACGCTCGTTCTCGGAGTCACCTAGTGCAG — higher, 9880 fluorescence intensity (a.u.)
- GGAGTTTGTTCGTTTCTTTCCCGTTGTCCTATGCCCACTGCGGAGTCACCTAGTGCAG — higher, 13400 fluorescence intensity (a.u.)
- CACCCTCGCGCCGTCCATACATCCACCGTCGTGTCGCCCACGGAGTCACCTAGTGCAG — higher, 13900 fluorescence intensity (a.u.)
- CTATCTGTTAGCTTCTAATATCTATTTTCGCGAACTGCTACGGAGTCACCTAGTGCAG — higher, 9970 fluorescence intensity (a.u.)
- ACTGCTCTGCATCATCTTCACCAACATGTCGACAACCAGCCGGAGTCACCTAGTGCAG — higher, 8840 fluorescence intensity (a.u.)
- TAGTATTTACCAGCTCTTTTGGATATGACAATTGACCATTCGGAGTCACCTAGTGCAG — lower, 8320 fluorescence intensity (a.u.)
- TCACTAAATTGCTTTCCTGTATGTGCACATCCAAATTTTTCGGAGTCACCTAGTGCAG — higher, 8410 fluorescence intensity (a.u.)
- TATTTCGTGCTTCCCTGCCGCATCGCTCGCGCGCCAAAATCGGAGTCACCTAGTGCAG — lower, 8270 fluorescence intensity (a.u.)
- TACTAGTTATTAAAGTGTCTTTCAGCCGTGACTTTTTTTACGGAGTCACCTAGTGCAG — higher, 9110 fluorescence intensity (a.u.)
- TCCTCTATGGCGCCGCTTACGTCCCGCCGCCCCGCTCCTGCGGAGTCACCTAGTGCAG — higher, 9630 fluorescence intensity (a.u.)
- CGATCGGAGGAGGAGGCGGCGGGGAGGGAGGAGGAGGATGCGGAGTCACCTAGTGCAG — higher, 10800 fluorescence intensity (a.u.)
- CCGCGCCGCCACGCGCTCGCATCGCATCCACCAGCGCCCACGGAGTCACCTAGTGCAG — lower, 8140 fluorescence intensity (a.u.)
